{"source": "patent US9433588B2", "about": "“Delivery of submicrometer and nanometer aerosols to the lungs using hygroscopic excipients or dual stream nasal delivery” (Virginia Commonwealth Univeristy, priority 2009, dated 2016)", "key": {"[1]": {"assay": "Hygroscopic growth tube, CAG nanoparticle aerosols sized by cascade impactor", "format": "physicochemical", "conditions": "Table 1", "experimental": "Budesonide nanoparticle aerosols were generated using the Capillary Aerosol Generator (CAG). This technology represents a generic means of producing engineered pharmaceutical nanosized particles suitable for inhalation. The CAG utilizes controlled heating of a liquid formulation passing through a capillary tube to produce nanosized dry particles exiting the capillary nozzle.\nHygroscopic growth of these nanoparticle aerosols was evaluated by passing the aerosol through a growth tube. Briefly, following nanoparticle generation the aerosols were drawn through the 29 cm hygroscopic growth tube at a flow rate of 30 L/min. The tube was held at 37° C. and 99% relative humidity (RH) to simulate expected lung conditions. The growth tube was approximately 29 cm, which is consistent with the distance from the mouth inlet to the main bronchi of an adult. Following passage through the tubular geometry the aerosols were delivered to the 10-stage MOUDI or Andersen Cascade Impactor (ACI; Graseby-Andersen Inc, Smyrna, Ga.) for particle sizing. Both the tubular geometry and the cascade impactor were placed in an environmental chamber (Espec Environmental Cabinet, Hudsonville, Mich.) to maintain constant temperature and humidity conditions. The ACI was employed following hygroscopic growth when it was expected that the aerosols produced would be in the 1-3 μm size range. For these studies, the final aerodynamic particle size distribution of the aerosol exiting the hygroscopic growth tube was determined at 28±2 L/min, and humidified co-flow air (99% RH) was supplied to the impactor. […] The mass of drug on each impaction plate was determined and used to calculate both the initial and final aerodynamic particle size distributions of the drug aerosols. The growth ratios were calculated by comparing the final size with the initial size of the nanoparticle as a measure of hygroscopic size increase.\nHygroscopic growth of these nanoparticle aerosols was evaluated by passing the aerosol through a growth tube as described in Example 1. […]"}, "[2]": {"assay": "In vitro growth system for validation of the numerical model (CAG, growth zone, MOUDI)", "format": "physicochemical", "experimental": "Submicrometer drug and drug-hygroscopic excipient particles were formed using a capillary aerosol generator (CAG). The capillary aerosol generation system is described and considered in detail by the previous studies of Hindle et al. (1998) and Longest et al. (2007). In the current study, the formulation was a mixture of 50% water and 50% ethanol by weight to dissolve both hydrophilic and hydrophobic drugs. This solution was heated and pumped through the CAG at a flow rate of 10 mg/s to form the spray aerosol. Single drug and drug-hygroscopic excipient particles were created experimentally for albuterol sulfate (AS), budesonide (BD), and sodium chloride (NaCl). Specifically, single component drug particles were formed using a 0.2% w/v AS solution and a 0.15% w/v BD solution, respectively. Combination drug-hygroscopic excipient particles were generated using a 0.1% AS-0.1% NaCl w/v solution and a 0.1% BD-0.1% NaCl w/v solution, respectively. The spray aerosol was allowed to dry into solid particles by passage through a 52 cm length of dry tubing (FIG. 3). Initial particle size was then assessed by connecting the tubing to a 10 stage MOUDI (MSP Corp, Shoreview, Minn.). To produce growth, the aerosol stream was combined with humidified air at T=25° C. and RH=99% sampled from an environmental cabinet. […] This length was selected to provide a residence time of approximately 0.2 s, which is consistent with the time required for an orally inhaled pharmaceutical aerosol to reach the main bifurcation of the lungs under standard inhalation conditions. Walls of the growth section were pre-wetted to simulate the wet walled conditions of the respiratory tract, which stimulates aerosol growth. The growth tube was not heated and was exposed to 24° C. room temperature air for this initial validation experiment. After exiting the growth tube, the aerosol was passed into the 10 stage MOUDI for size characterization.\nIn separate experiments, the temperature and humidity of the humidified air and the temperature of the aerosol mixture stream at the inlet to the condensational growth tube were measured. […]\nThe initial aerodynamic particle size distribution of the aerosol exiting the drying section of tubing was determined using the 10 stage MOUDI operated at 30±2 L/min, which allowed size fractionation between 50 nm and 10 μm. […] The final aerodynamic particle size distribution of the aerosol exiting the condensational growth tube was also determined using the MOUDI operated at 30±2 L/min. […] The mass of drug and excipient on each impaction plate was determined and used to calculate both the initial and final aerodynamic particle size distributions of the drug and combination aerosols. […]"}}, "note": "At least one structure is not confirmed: it was looked up by name or label, or the drawing left a doubt."}
{"compound": "CCCC1O[C@@H]2C[C@H]3[C@@H]4CCC5=CC(=O)C=C[C@]5(C)[C@H]4[C@@H](O)C[C@]3(C)[C@]2(C(=O)CO)O1", "note": "(stereo partly shown) [Budesonide (100%), Budesonide]", "values": [{"measurement": "Initial MMAD", "setting": "[1]; CAG-generated budesonide nanoparticles before growth tube, n = 4 (* n = 1)", "result": 430, "unit": "nm"}, {"measurement": "Final MMAD (99% RH)", "setting": "[1]; after 29 cm growth tube, 37° C., 99% RH, 30 L/min, 0.2 s", "result": 480, "unit": "nm"}, {"measurement": "Growth ratio", "setting": "[1]; final size compared with initial size, 29 cm growth tube, 99% RH", "result": 1.11}, {"measurement": "Initial MMAD", "setting": "[2]; at inlet to growth zone, SD in parentheses, minimum 4 trials", "result": "0.43 (0.02) μm"}, {"measurement": "Initial dgeo", "setting": "[2]; calculated from MMAD and dry particle density", "result": 0.43, "unit": "μm"}, {"measurement": "Final dgeo", "setting": "[2]; outlet of 26 cm growth tube, about 0.2 s, 99% RH, assumed equal to the MMAD", "result": "0.48 (0.03) μm"}, {"measurement": "d/do", "setting": "[2]; ratio of final to initial geometric diameters", "result": "1.1 (0.7)"}]}
